Data: the supplement of paper PMC10849652
The other results are listed elsewhere or left out.

Protein sequences, listed by entry. Tags and fused reporters are not part of them. Lines headed by an entry give the natural chain unless they say otherwise; changes in a name come on top.
UniProt Q8TAQ2, whole entry, looked up: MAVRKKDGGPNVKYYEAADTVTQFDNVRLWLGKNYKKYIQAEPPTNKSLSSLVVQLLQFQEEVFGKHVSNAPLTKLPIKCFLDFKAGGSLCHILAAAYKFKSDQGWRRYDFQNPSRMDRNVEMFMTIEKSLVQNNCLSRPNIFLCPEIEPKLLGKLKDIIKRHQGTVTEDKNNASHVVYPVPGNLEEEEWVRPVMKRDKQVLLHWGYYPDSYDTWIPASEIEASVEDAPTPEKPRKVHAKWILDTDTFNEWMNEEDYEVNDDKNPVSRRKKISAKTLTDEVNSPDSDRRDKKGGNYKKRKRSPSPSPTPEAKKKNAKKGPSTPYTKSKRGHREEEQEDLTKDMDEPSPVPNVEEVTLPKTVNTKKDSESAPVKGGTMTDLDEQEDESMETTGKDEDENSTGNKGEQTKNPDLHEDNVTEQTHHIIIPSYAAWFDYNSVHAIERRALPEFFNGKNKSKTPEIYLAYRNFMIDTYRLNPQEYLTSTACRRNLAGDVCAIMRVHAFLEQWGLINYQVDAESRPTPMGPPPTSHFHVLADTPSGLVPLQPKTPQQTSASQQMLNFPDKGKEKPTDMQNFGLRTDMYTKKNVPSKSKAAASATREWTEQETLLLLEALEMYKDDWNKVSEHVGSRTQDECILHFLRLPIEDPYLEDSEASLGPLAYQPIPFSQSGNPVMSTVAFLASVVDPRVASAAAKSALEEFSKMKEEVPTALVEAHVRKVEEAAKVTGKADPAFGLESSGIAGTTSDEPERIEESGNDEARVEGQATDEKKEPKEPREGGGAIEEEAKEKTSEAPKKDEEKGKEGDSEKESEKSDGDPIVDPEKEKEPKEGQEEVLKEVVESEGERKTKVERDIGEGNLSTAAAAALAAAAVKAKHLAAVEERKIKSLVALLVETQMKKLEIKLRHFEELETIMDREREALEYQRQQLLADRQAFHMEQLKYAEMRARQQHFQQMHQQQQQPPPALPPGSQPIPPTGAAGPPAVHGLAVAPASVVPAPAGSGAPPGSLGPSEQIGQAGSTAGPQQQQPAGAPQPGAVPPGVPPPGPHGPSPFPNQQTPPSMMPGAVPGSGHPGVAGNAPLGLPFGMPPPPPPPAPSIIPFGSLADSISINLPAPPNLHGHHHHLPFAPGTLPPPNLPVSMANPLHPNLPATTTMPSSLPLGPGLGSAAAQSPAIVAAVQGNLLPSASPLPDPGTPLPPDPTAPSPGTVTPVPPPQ
UniProt Q96H20: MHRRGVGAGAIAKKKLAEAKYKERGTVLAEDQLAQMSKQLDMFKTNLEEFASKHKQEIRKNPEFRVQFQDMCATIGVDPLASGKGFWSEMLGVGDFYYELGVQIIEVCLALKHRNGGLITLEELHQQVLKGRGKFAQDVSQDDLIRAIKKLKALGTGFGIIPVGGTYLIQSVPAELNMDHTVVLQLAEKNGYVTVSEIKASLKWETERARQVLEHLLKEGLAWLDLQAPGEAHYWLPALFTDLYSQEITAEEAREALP
UniProt P19634, whole entry, looked up: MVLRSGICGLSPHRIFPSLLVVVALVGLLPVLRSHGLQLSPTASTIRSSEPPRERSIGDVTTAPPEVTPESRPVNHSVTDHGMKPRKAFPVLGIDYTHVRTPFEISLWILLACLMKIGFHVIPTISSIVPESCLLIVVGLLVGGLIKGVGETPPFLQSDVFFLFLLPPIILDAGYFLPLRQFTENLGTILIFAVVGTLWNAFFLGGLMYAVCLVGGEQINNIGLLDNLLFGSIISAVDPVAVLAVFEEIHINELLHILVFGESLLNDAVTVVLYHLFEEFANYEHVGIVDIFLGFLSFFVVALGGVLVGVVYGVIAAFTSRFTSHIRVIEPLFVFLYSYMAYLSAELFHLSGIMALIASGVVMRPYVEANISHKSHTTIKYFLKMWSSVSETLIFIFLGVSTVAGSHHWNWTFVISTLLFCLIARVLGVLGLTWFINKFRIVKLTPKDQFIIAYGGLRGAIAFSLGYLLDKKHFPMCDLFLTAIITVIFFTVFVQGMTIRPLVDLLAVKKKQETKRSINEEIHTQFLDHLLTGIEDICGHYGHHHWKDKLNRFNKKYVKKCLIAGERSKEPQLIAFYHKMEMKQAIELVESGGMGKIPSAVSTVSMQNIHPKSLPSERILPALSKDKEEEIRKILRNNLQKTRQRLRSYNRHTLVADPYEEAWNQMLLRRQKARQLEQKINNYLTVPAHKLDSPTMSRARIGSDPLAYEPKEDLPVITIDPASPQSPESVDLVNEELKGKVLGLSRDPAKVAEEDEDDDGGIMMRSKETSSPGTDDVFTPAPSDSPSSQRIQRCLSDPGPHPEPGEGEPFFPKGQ
UniProt Q96EX1: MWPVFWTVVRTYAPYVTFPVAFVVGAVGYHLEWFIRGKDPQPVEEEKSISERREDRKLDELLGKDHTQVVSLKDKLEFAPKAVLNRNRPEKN
UniProt P62306, whole entry, looked up: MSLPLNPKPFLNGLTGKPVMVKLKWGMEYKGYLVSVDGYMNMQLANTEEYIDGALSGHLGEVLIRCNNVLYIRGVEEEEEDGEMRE
UniProt Q9UQE7: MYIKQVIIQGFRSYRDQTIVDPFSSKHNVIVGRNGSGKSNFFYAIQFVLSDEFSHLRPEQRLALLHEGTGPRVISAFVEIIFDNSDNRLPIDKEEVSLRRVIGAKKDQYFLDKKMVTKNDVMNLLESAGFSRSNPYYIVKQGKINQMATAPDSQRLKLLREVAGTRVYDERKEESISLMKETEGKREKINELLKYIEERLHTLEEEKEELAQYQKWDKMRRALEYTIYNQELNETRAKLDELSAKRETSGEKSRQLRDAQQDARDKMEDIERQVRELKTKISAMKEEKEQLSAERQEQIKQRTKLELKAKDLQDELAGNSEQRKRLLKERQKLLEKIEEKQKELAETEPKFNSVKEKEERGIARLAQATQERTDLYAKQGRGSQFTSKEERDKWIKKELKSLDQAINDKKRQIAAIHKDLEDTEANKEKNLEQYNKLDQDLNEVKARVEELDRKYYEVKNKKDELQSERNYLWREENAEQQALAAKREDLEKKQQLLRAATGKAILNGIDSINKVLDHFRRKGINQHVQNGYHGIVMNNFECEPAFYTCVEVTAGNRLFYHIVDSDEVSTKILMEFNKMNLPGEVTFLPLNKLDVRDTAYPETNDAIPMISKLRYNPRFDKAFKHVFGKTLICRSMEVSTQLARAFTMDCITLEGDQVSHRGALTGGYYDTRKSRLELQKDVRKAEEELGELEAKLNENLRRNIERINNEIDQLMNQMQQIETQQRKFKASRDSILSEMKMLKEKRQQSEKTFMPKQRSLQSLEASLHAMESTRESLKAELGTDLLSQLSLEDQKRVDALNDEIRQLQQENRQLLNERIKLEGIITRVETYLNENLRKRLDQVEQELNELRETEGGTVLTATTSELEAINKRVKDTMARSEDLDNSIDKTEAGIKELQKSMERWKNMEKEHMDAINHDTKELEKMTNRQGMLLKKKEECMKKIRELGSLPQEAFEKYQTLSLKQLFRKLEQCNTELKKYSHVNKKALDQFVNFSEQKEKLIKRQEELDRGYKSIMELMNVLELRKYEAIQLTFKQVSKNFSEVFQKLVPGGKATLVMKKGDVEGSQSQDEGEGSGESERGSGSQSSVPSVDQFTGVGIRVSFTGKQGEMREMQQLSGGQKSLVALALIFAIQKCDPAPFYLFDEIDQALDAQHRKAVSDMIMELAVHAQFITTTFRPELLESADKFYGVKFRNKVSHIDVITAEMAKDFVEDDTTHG
UniProt P62308, whole entry, looked up: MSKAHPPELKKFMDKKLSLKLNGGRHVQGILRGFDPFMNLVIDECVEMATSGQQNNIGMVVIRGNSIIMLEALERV
UniProt P09012, whole entry, looked up: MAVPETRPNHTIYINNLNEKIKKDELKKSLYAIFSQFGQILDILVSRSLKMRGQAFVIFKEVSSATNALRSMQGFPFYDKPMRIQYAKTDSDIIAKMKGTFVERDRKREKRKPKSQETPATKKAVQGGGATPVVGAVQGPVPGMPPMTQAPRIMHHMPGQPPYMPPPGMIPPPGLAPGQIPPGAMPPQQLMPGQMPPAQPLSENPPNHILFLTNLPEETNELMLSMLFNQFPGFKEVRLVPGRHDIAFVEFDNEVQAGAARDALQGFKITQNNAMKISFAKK
UniProt Q96SB8: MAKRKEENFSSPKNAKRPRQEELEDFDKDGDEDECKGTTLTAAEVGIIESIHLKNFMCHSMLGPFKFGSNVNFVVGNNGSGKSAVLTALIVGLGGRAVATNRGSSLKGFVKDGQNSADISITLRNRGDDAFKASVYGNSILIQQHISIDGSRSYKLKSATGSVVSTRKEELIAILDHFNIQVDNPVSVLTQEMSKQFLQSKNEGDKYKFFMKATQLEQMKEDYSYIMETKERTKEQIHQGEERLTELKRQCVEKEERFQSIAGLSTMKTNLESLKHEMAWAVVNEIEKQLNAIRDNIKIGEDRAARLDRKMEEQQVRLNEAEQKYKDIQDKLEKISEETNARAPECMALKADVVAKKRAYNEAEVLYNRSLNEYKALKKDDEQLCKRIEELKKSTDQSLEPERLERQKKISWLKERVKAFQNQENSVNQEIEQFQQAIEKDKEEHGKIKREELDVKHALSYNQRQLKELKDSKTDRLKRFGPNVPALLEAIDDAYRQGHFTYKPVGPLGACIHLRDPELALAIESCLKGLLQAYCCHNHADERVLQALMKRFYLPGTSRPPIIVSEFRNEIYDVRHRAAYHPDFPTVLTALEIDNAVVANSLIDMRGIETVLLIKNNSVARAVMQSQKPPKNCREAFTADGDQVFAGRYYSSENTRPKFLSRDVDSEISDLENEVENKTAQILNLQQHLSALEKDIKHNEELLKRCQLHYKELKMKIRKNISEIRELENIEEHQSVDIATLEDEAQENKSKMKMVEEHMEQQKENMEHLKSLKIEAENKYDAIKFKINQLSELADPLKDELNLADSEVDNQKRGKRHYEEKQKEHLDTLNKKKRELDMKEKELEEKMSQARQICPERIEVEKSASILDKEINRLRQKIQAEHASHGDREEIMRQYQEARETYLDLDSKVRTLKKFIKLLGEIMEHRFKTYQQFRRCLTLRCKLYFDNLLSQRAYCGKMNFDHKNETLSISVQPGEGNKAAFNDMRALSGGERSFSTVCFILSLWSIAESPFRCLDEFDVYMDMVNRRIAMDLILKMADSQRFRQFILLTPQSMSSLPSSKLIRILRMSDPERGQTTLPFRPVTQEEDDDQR
UniProt Q8NDV3: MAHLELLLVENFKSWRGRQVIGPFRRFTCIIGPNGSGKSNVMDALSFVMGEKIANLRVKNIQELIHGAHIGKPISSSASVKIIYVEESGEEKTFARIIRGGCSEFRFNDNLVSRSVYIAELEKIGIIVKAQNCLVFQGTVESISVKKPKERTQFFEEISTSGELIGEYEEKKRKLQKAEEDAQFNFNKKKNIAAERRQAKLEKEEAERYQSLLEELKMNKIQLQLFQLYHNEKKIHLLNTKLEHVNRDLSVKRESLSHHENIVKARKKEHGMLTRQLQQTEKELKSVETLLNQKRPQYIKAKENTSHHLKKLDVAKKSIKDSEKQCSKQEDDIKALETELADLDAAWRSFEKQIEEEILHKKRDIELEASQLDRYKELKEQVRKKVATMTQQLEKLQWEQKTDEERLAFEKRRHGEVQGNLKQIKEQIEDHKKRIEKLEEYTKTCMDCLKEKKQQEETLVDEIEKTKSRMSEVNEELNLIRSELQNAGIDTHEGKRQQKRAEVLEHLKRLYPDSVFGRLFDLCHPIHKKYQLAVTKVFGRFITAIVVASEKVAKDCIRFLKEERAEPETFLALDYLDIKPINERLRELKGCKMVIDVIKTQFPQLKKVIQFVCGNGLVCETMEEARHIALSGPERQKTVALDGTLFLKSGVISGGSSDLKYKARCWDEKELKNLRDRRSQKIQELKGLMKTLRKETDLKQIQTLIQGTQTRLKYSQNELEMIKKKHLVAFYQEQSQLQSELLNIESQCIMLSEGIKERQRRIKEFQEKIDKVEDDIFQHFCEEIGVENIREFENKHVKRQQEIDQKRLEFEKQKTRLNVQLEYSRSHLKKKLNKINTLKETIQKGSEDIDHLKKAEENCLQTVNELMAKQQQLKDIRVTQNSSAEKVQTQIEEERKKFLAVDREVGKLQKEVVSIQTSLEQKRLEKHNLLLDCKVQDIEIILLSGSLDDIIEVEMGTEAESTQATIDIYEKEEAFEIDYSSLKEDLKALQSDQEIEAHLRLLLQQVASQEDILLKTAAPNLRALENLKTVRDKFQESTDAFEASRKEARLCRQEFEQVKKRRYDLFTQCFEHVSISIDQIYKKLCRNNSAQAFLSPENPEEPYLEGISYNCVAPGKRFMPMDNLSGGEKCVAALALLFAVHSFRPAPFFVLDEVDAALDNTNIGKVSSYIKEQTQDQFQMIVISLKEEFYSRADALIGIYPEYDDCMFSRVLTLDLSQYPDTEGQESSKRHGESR
UniProt P62304, whole entry, looked up: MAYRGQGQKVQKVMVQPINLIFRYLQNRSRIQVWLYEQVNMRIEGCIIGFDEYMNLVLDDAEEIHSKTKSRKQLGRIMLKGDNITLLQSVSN
UniProt O95295: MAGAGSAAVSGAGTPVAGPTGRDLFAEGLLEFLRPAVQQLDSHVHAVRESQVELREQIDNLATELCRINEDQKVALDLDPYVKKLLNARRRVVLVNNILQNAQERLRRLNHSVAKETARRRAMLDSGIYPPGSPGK

The targets below were run with c1cn2cc(-c3ccc4cn[nH]c4c3)nc(Nc3ccc(N4CCOCC4)cc3)c2n1 [entospletinib] (assay: log2 fold change, soluble protein after heating vs DMSO (PISA); higher = thermal stabilisation; K562 cells, 10 uM, 30 min; active = over 0.2 and 3.5 SD of the protein, either way, in both replicates (recomputed)).
How it was run: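 K562 cells at 2×10^6 cells/mL were exposed to 10 μM compound for 30 min, then aliquots were heated for 3 min across 48°C-58°C, pooled, and extracted in PBS containing 0.5% NP-40 at 4°C. The supernatant after 21,000xg for 90 min was taken as soluble protein and measured by TMTpro 16plex LC-MS/MS with channel sums equalised. Thermal stability is reported relative to control samples, with values from duplicates. Fold changes are given on a log2 scale.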

log2 fold change, inactive:
SMARCC2 (UniProt Q8TAQ2) -0.114
SNF8 (UniProt Q96H20) 0.036
SNCA (UniProt P37840) -0.026
SMS (UniProt P52788) -0.018
SMARCC1 (UniProt Q92922) -0.045
SLC9A1 (UniProt P19634) -0.046
SMIM12 (UniProt Q96EX1) -0.003
SMC2 (UniProt O95347) 0.022
SNU13, A0A3B3IUA2 -0.096
SMU1 (UniProt Q2TAY7) -0.019
SOCS2 (UniProt O14508) -0.029
SND1 (UniProt Q7KZF4) 0.322
SNRPD2 (UniProt P62316) -0.019
SNAP23 (UniProt O00161) 0.014
SNRPF (UniProt P62306) -0.018
SPA17 (UniProt Q15506) 0.071
SNRNP70 (UniProt P08621) -0.057
SLCO4A1 (UniProt Q96BD0) 0.124
SMC4 (UniProt Q9NTJ3) -0.008
SNRPA1 (UniProt P09661) -0.043
SMN1 (UniProt Q16637) 0.078
SMIM8 (UniProt Q96KF7) -0.026
SNRPC (UniProt Q5TAL2) -0.296
SMC3 (UniProt Q9UQE7) -0.027
SMC1A (UniProt Q14683) -0.009
SPAG5 (UniProt Q96R06) 0.13
SNRNP200 (UniProt O75643) 0.092
SLMAP (UniProt Q14BN4) 0.029
SNRPG (UniProt P62308) 0.018
SNAP29 (UniProt O95721) 0.022
SNRPA (UniProt P09012) 0.06
SMC6 isoform 2 (UniProt Q96SB8) 0.074
SMC1B isoform 3 (UniProt Q8NDV3) -0.031
SMIM26, A0A096LP01 -0.157
SMARCA1 (UniProt P28370) 0.072
SLC9A3R2 (UniProt Q15599) 0.024
SNRPC (UniProt P09234) -0.012
SNRPE (UniProt P62304) 0.015
SNAPIN (UniProt O95295) 0.003
SMYD5 (UniProt Q6GMV2) -0.08

Fetched one by one from above:
log2 fold change, inactive:
SNRPG (UniProt P62308) 0.018
SNRPE (UniProt P62304) 0.015
